No constants are given. Whether binding was seen depends on the method and setting. For part of these data: Binding seen in cells or lysates may run through a third protein. Some entries that bind do so weakly or less than the wild type. For part of these data: Sequences can lack the tags named with a protein.
What was measured:
[1] = target: T1, Flag/Herp (pcDNA3-Flag/Herp with Herp from 1 bp to 1176 bp) (human) (UniProt Q15011); assay: co-immunoprecipitation and Western blotting from co-transfected HEK293 cells
T1 sequence: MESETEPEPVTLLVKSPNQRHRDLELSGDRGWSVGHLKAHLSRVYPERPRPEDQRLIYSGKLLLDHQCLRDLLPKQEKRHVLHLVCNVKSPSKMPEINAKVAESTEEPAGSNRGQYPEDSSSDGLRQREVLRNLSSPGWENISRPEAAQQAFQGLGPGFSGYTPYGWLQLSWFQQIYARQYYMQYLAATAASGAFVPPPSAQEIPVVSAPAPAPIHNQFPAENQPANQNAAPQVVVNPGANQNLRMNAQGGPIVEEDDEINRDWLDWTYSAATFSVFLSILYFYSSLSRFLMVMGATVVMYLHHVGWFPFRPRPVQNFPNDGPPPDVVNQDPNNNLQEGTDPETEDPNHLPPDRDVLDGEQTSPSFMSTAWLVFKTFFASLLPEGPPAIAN

By UniProt entry, the sequences of proteins in these tests, tags left out. Where a name states a change or a piece, a line headed by the entry shows the natural chain unless it says otherwise.
UniProt Q86TM6: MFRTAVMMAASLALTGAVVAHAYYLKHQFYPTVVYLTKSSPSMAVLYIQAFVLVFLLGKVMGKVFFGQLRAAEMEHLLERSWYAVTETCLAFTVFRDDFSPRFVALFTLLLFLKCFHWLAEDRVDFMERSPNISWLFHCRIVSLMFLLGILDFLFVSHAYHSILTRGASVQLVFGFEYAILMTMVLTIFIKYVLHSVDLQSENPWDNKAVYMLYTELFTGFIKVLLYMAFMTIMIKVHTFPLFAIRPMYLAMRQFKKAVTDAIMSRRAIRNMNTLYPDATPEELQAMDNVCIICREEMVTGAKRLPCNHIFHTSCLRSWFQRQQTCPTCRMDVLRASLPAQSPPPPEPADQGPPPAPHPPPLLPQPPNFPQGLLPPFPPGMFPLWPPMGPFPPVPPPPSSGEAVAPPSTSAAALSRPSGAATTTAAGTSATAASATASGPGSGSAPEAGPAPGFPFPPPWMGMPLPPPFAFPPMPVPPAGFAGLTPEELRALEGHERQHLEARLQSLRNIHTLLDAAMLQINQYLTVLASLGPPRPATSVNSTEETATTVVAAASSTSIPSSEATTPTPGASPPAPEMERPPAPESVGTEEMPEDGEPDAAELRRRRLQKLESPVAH

[2] = target: T2, homocysteine-inducible endoplasmic reticulum stress-inducible ubiquitin-like domain member 1 (Herp), clone from the human cartilage cDNA library in pACT2 (human) (UniProt Q15011); assay: yeast two-hybrid screen of a human cartilage cDNA library, beta-galactosidase filter assay
T2 sequence: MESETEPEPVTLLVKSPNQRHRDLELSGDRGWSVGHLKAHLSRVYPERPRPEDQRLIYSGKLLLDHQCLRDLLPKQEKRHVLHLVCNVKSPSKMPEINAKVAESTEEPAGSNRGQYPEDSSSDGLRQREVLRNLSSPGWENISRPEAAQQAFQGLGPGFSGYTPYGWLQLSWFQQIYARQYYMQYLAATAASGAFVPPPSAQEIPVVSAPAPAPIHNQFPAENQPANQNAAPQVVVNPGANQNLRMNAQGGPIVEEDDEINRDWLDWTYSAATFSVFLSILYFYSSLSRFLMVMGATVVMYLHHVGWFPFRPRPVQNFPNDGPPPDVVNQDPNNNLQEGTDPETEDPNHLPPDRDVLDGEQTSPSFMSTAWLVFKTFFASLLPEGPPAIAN

FLAG-tagged synoviolin = target: T3, FLAG-tagged synoviolin (human, UniProt Q86TM6 1-617); assay: co-immunoprecipitation (anti-HA or anti-FLAG) and Western blotting from HEK293T cells
T3 construct: not shown: FLAG tag
Procedure: An HA tag was attached to the N-terminal of this gene, which was inserted into a pcDNA3 vector. Next, Ha-tagged Herp, Herp(-bind) and a blank vector were each strongly expressed together with FLAG-tagged synoviolin in HEK293T cells. After 24 hours whole cell extract (WCE) was extracted, expression of each protein was confirmed, and immunoprecipitation was performed with anti-HA antibodies or anti-FLAG antibodies.

HA/Syno (pcDNA3-HA/Syno with synoviolin from 1 bp to 1854 bp) (from UniProt Q86TM6 1-617)
binding [1]: binds

synoviolin Bait (pGBT9-Syno dTM or pGBT9-Syno Ring) (from UniProt Q86TM6 236-617)
binding [2]: binds

B1: HA-tagged Herp (protein, not shown: small tags and cut ends)
chain: MESETEPEPVTLLVKSPNQRHRDLELSGDRGWSVGHLKAHLSRVYPERPRPEDQRLIYSGKLLLDHQCLRDLLPKQEKRHVLHLVCNVKSPSKMPEINAKVAESTEEPAGSNRGQYPEDSSSDGLRQREVLRNLSSPGWENISRPEAAQQAFQGLGPGFSGYTPYGWLQLSWFQQIYARQYYMQYLAATAASGAFVPPPSAQEIPVVSAPAPAPIHNQFPAENQPANQNAAPQVVVNPGANQNLRMNAQGGPIVEEDDEINRDWLDWTYSAATFSVFLSILYFYSSLSRFLMVMGATVVMYLHHVGWFPFRPRPVQNFPNDGPPPDVVNQDPNNNLQEGTDPETEDPNHLPPDRDVLDGEQTSPSFMSTAWLVFKTFFASLLPEGPPAIAN
binding (FLAG-tagged synoviolin): binds

— US20070275887A1, “Method of Inhibiting Secretase Activity” (priority 2003, published 2007)
